No constants are given. Whether binding was seen depends on the method and setting. Some results given as binding are weak or reduced against the parent protein; the word gives no strength.
Key:
[1] = target: hPBV capsid protein without the N-terminal peptide (Δ45) (human picobirnavirus (hPBV), strain Hy005102) (UniProt Q50LE5); assay: virus-like particle assembly (CsCl gradient ultracentrifugation + TEM); CP overexpressed in E. coli; VLPs purified in a CsCl gradient (density ~1.3 g/ml) and imaged by TEM (~35 nm)
[2] = target: human picobirnavirus (hPBV) capsid protein, strain Hy005102, untagged (human picobirnavirus (hPBV), strain Hy005102) (UniProt Q50LE5); assay: as above

| Substance | binding [1] | binding [2] |
| --- | --- | --- |
| hPBV capsid protein without the N-terminal peptide (Δ45) (from UniProt Q50LE5 46-552) (domain or fragment) | binds |  |
| human picobirnavirus (hPBV) capsid protein, strain Hy005102, untagged (from UniProt Q50LE5 1-552) |  | binds |

— paper PMC4831847
